# In publication PMC12690989:
# The chains behind the UniProt entries cited, without tags or fusion partners. Where a name states a change or a piece, a line headed by the entry shows the natural chain unless it says otherwise.
# UniProt P08172: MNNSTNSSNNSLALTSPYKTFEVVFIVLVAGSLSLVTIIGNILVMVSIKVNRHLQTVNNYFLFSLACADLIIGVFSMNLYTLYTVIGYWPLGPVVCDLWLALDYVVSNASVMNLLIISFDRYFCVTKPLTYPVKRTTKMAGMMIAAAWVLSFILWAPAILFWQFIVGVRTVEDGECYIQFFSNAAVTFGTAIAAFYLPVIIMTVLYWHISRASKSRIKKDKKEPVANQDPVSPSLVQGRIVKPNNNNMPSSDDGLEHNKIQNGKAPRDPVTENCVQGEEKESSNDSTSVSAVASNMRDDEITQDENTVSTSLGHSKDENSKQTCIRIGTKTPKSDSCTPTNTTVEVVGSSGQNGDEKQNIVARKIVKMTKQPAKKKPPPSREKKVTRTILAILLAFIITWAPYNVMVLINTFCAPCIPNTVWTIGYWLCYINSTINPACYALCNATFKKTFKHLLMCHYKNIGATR
# UniProt P49407: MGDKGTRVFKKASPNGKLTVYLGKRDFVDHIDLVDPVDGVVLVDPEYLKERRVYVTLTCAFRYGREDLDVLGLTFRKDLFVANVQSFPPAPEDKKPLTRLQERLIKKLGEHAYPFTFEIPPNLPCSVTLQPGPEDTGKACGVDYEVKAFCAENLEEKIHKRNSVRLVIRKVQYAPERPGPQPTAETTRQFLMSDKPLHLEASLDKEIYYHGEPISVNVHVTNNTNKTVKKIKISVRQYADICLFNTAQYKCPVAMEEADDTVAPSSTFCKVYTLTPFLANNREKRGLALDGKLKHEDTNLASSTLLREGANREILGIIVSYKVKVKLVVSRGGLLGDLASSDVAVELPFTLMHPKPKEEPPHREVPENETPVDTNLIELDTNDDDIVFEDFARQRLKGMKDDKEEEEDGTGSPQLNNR
# UniProt P32121: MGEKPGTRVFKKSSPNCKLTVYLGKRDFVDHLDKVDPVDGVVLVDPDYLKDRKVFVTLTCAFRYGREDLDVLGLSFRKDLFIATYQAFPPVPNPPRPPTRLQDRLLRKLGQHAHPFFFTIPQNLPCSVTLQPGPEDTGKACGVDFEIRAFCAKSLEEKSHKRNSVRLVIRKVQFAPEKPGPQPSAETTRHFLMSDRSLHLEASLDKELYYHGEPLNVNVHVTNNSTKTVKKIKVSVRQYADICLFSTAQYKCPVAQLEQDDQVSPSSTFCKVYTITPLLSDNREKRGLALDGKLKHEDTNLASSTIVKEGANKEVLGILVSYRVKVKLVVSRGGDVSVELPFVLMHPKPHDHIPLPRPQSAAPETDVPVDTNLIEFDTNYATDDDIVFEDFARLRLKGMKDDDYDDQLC
# No constants are given. Whether binding was seen depends on the method and setting. In cells and extracts the contact can be indirect. Some binding calls cover weakened binding; strength is not graded here.
# Key:
# [1] = molecular target: M2 muscarinic receptor fused to Renilla luciferase (M2R-RLuc) (human) (UniProt P08172); assay: condition: only cells preincubated with atropine (muscarinic antagonist) before 10 µM carbachol; FRET or BRET; BRET1 in intact HEK 293T cells co-expressing M2R-RLuc, GRK2 and Arr-2-YFP or Arr-3-YFP; preincubated with atropine at multiple concentrations for 15 min, then 10 uM carbachol for 20 min, 25 °C
# [2] = molecular target: M2 muscarinic receptor fused to Renilla luciferase (M2R-RLuc) (human) (UniProt P08172); assay: condition: only without agonist (cells treated with Control IgG or DCD IgG alone); FRET or BRET; BRET1 in intact HEK 293T cells co-expressing M2R-RLuc, GRK2 and Arr-2-YFP or Arr-3-YFP; no agonist, cells treated with Control IgG or DCD IgG alone at various concentrations for 30 or 60 min, 25 °C; delta-BRET against buffer alone
# [3] = molecular target: M2 muscarinic receptor fused to Renilla luciferase (M2R-RLuc) (human) (UniProt P08172); assay: FRET or BRET; BRET1 in intact HEK 293T cells co-expressing M2R-RLuc, GRK2 and Arr-2-YFP or Arr-3-YFP; carbachol (various concentrations or 10 uM) for 20, 30 or 60 min at 25 °C in KRHA buffer, 5 uM coelenterazine h; delta-BRET against buffer alone, in mB; in some series cells were preincubated with gallamine, Control IgG, DCD IgG or DCD IgG/pM2 before carbachol
binding [1],binding [2],binding [3],Substance
no binding,no binding,binds,arrestin-2 fused to the enhanced yellow fluorescence protein (Arr-2-YFP) (from UniProt P49407 1-418)
no binding,no binding,binds,arrestin-3 fused to the enhanced yellow fluorescence protein (Arr-3-YFP) (from UniProt P32121 1-409)
